From US20140086881A1, “GOOD HEALTHY CELLS FOUND IN PROTEINS, THEIR APPLICATIONS, AND PROCESS OF MAKING A MEDIUM TO HARVEST THE CELLS” (priority 2012, published 2014)
At least one compound was matched to its structure with a doubt left.

Test system: Adjuvant-Induced Arthritis (AIA)
Assay: Adjuvant-Induced Arthritis (AIA) in Lewis rats

C[C@@H]1C[C@H]2[C@@H]3CCC4=CC(=O)C=C[C@]4(C)[C@@]3(F)[C@@H](O)C[C@]2(C)[C@@]1(O)C(=O)CO [Dex, Dexamethasone]
arthritic score (rat, in vivo): significantly inhibited the disease development
paw volume / paw swelling compared with saline group (right hind paw): significantly lower than saline group
